PubChem BioAssay AID1259405, NCATS – 2018
In all, the deposit lists about 50,000 reagents; shown is an unselected part. About 4,000 of all reagents (8%) were called active. 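Mouse siRNA library applied to hamster cells; one well for each siRNA.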 Reagents against one gene are numbered here.

Purpose: 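Silenced genes that increase secreted GFP made by CHO cells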 (primary screen)
Cell system: Chinese hamster CHO-K1 ovary cells with stable secreted eGFP expression
Reagent: single siRNA against mouse genes, 0.8 pmol siRNA per well (2 µl of 400 nM stock)
Time to read-out: 3 days
Measurement: 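Per-well intracellular GFP measured by laser scanning cytometry, plus viability from ATP luminescence, each relative to plate median of non-targeting control wells, in %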
Scale: GFP, % of control: higher = more GFP per well, higher productivity; viability (ATP), % of control: higher = more viable cells (more ATP)
Hit rule: 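a knock-down is called active if GFP reaches 120% or more of non-targeting control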

The opening 5 entries, ahead of the listing:
target,reagent,"GFP, % of control","viability (ATP), % of control",call
Zc3h11a (zinc finger CCCH type containing 11A),1,84.5,78.9,inactive
Zc3h11a (zinc finger CCCH type containing 11A),2,72.2,50.5,inactive
Zc3h11a (zinc finger CCCH type containing 11A),3,82.2,44.6,inactive
Hypk (huntingtin interacting protein K),1,110,90.3,inactive
Hypk (huntingtin interacting protein K),2,88.2,74.3,inactive

The list itself, from the start:
target,reagent,"GFP, % of control","viability (ATP), % of control",call
Zc3h11a (zinc finger CCCH type containing 11A),1,84.5,78.9,inactive
Zc3h11a (zinc finger CCCH type containing 11A),2,72.2,50.5,inactive
Zc3h11a (zinc finger CCCH type containing 11A),3,82.2,44.6,inactive
Hypk (huntingtin interacting protein K),1,110,90.3,inactive
Hypk (huntingtin interacting protein K),2,88.2,74.3,inactive
Hypk (huntingtin interacting protein K),3,57.2,61.6,inactive
Flrt3 (fibronectin leucine rich transmembrane protein 3),1,42.7,49.9,inactive
Flrt3 (fibronectin leucine rich transmembrane protein 3),2,76.9,83.4,inactive
Flrt3 (fibronectin leucine rich transmembrane protein 3),3,75.9,63.2,inactive
Rasa3 (RAS p21 protein activator 3),1,81.3,81.5,inactive
Rasa3 (RAS p21 protein activator 3),2,65.2,53.3,inactive
Rasa3 (RAS p21 protein activator 3),3,78.3,62.1,inactive
Ttc28 (tetratricopeptide repeat domain 28),1,132,93.6,active
Ttc28 (tetratricopeptide repeat domain 28),2,75.9,90.5,inactive
Ttc28 (tetratricopeptide repeat domain 28),3,59.4,101,inactive
Ccnd1 (cyclin D1),1,64.3,98,inactive
Ccnd1 (cyclin D1),2,99.9,96,inactive
Il20rb (interleukin 20 receptor beta),1,90.7,113,inactive
Il20rb (interleukin 20 receptor beta),2,51.2,51.4,inactive
Bnip3 (BCL2/adenovirus E1B interacting protein 3),1,69,59.4,inactive
Bnip3 (BCL2/adenovirus E1B interacting protein 3),2,72.1,64.9,inactive
Bnip3 (BCL2/adenovirus E1B interacting protein 3),3,97.8,92.8,inactive
"Pikfyve (phosphoinositide kinase, FYVE type zinc finger containing)",1,81.9,101,inactive
"Pikfyve (phosphoinositide kinase, FYVE type zinc finger containing)",2,124,105,active
"Pikfyve (phosphoinositide kinase, FYVE type zinc finger containing)",3,82.2,74.7,inactive
Eif4e (eukaryotic translation initiation factor 4E),1,79.5,87.8,inactive
Eif4e (eukaryotic translation initiation factor 4E),2,82.8,88.5,inactive
Eif4e (eukaryotic translation initiation factor 4E),3,104,86.5,inactive
Eif4b (eukaryotic translation initiation factor 4B),1,65.8,95,inactive
Eif4b (eukaryotic translation initiation factor 4B),2,65.7,43.4,inactive
Eif4b (eukaryotic translation initiation factor 4B),3,126,90.9,active
Galnt3 (polypeptide N-acetylgalactosaminyltransferase 3),1,52.4,86.2,inactive
Galnt3 (polypeptide N-acetylgalactosaminyltransferase 3),2,80.5,138,inactive
Galnt3 (polypeptide N-acetylgalactosaminyltransferase 3),3,90.1,106,inactive
"Zfyve1 (zinc finger, FYVE domain containing 1)",1,51.2,50.6,inactive
"Zfyve1 (zinc finger, FYVE domain containing 1)",2,71.5,71.3,inactive
"Zfyve1 (zinc finger, FYVE domain containing 1)",3,66.9,83.1,inactive
Zfp14 (zinc finger protein 14),1,61.7,55.3,inactive
Zfp14 (zinc finger protein 14),2,66.8,73.5,inactive
Zfp14 (zinc finger protein 14),3,108,95.3,inactive
Klk15 (kallikrein related-peptidase 15),1,86.3,105,inactive
Klk15 (kallikrein related-peptidase 15),2,97.2,61.4,inactive
Klk15 (kallikrein related-peptidase 15),3,59.4,36.3,inactive
Hmox2 (heme oxygenase 2),1,108,103,inactive
Hmox2 (heme oxygenase 2),2,64.7,81.3,inactive
Hmox2 (heme oxygenase 2),3,139,86.1,active
Zfp354a (zinc finger protein 354A),1,89.3,99.5,inactive
Zfp354a (zinc finger protein 354A),2,71.3,81.2,inactive
Zfp354a (zinc finger protein 354A),3,88.9,82,inactive
"Tuba1a (tubulin, alpha 1A)",1,90.5,76.7,inactive
"Tuba1a (tubulin, alpha 1A)",2,81,96.8,inactive
Atg7 (autophagy related 7),1,148,112,active
Atg7 (autophagy related 7),2,64.3,54.3,inactive
Atg7 (autophagy related 7),3,53.2,64.5,inactive
Nomo1 (nodal modulator 1),1,78,92.6,inactive
Nomo1 (nodal modulator 1),2,69.7,91.2,inactive
Nomo1 (nodal modulator 1),3,144,39.4,active
Cldn5 (claudin 5),1,90.9,69.2,inactive
Cldn5 (claudin 5),2,103,76.8,inactive
Cldn5 (claudin 5),3,88.7,99.4,inactive
Gpr176 (G protein-coupled receptor 176),1,61.6,58.1,inactive
Gpr176 (G protein-coupled receptor 176),2,100,75.4,inactive
Gpr176 (G protein-coupled receptor 176),3,56.8,68.5,inactive
Clic1 (chloride intracellular channel 1),1,81,69.9,inactive
Clic1 (chloride intracellular channel 1),2,47.1,80.4,inactive
Clic1 (chloride intracellular channel 1),3,48,51.7,inactive
Macir (macrophage immunometabolism regulator),1,69.7,80.1,inactive
Macir (macrophage immunometabolism regulator),2,87.3,80.7,inactive
Macir (macrophage immunometabolism regulator),3,52.6,76.6,inactive
Krt16 (keratin 16),1,67.8,47.3,inactive
Krt16 (keratin 16),2,67.4,71.6,inactive
Krt16 (keratin 16),3,55.2,76.3,inactive
Sry (sex determining region of Chr Y),1,71.3,75.3,inactive
Sry (sex determining region of Chr Y),2,64.7,76.7,inactive
Sry (sex determining region of Chr Y),3,79.1,66.1,inactive
"P2ry14 (purinergic receptor P2Y, G-protein coupled, 14)",1,151,52.6,active
"P2ry14 (purinergic receptor P2Y, G-protein coupled, 14)",2,91.2,84.5,inactive
"P2ry14 (purinergic receptor P2Y, G-protein coupled, 14)",3,76,82.3,inactive
Patl2 (protein associated with topoisomerase II homolog 2 (yeast)),1,88.6,88.9,inactive
Patl2 (protein associated with topoisomerase II homolog 2 (yeast)),2,84.6,44,inactive
Patl2 (protein associated with topoisomerase II homolog 2 (yeast)),3,74.5,87.1,inactive
Dpf3 (double PHD fingers 3),1,95.1,90.9,inactive
Dpf3 (double PHD fingers 3),2,88.4,63.3,inactive
Dpf3 (double PHD fingers 3),3,38.4,64.4,inactive
